Measurements published in patent US20240123070A1, “EPITOPE PEPTIDE OF RAS G13D MUTANT AND T CELL RECEPTOR RECOGNIZING RAS G13D MUTANT” (SHANGHAI GENBASE BIOTECHNOLOGY CO., LTD., priority 2021, published 2024).
Numbering of substitutions follows the chain as printed.

B1: β96T-H: B8.2.4 TCR point mutant, Vβ-CDR3 96T to H; CDR3β ASSQHVPPQH (protein)
TCR alpha: AQKITQTQPGMFVQEKEAVTLDCTYDTSDPSYGLFWYKQPSSGEMIFLIYQGSYDQQNATEGRYSLNFQKARKSANLVISASQLGDSAMYFCAMRERTGTASKLTFGTGTRLQVTLDIQNPEPAVYQLKDPRSQDSTLCLFTDFDSQINVPKTMESGTFITDKTVLDMKAMDSKSNGAIAWSNQTSFTCQDIFKETNATYPSSDVPCDATLTEKSFETDMNLNFQNLSVMGLRILLLKVAGFNLLMTLRLWSS
TCR beta: DVKVTQSSRYLVKRTGEKVFLECVQDMDHENMFWYRQDPGLGLRLIYFSYDVKMKEKGDIPEGYSVSREKKERFSLILESASTNQTSMYLCASSQHVPPQHFGDGTRLSILEDLRNVTPPKVSLFEPSKAEIANKQKATLVCLARGFFPDHVELSWWVNGKEVHSGVSTDPQAYKESNYSYCLSSRLRVSATFWHNPRNHFRCQVQFHGLSEEDKWPEGSPKPVTQNISAEAWGRADCGITSASYQQGVLSATILYEILLGKATLYAVLVSTLVVMAMVKRKNS
B2: β96T-I: B8.2.4 TCR point mutant, Vβ-CDR3 96T to I (protein)
TCR alpha: B1 TCR alpha
TCR beta: B1 TCR beta with H96I
B3: β96T-K: B8.2.4 TCR point mutant, Vβ-CDR3 96T to K; CDR3β ASSQKVPPQH (protein)
TCR alpha: B1 TCR alpha
TCR beta: B1 TCR beta with H96K
B4: β96T-L: B8.2.4 TCR point mutant, Vβ-CDR3 96T to L (protein)
TCR alpha: B1 TCR alpha
TCR beta: B1 TCR beta with H96L
B5: β96T-M: B8.2.4 TCR point mutant, Vβ-CDR3 96T to M (protein)
TCR alpha: B1 TCR alpha
TCR beta: B1 TCR beta with H96M
B6: β96T-N: B8.2.4 TCR point mutant, Vβ-CDR3 96T to N; CDR3β ASSQNVPPQH (protein)
TCR alpha: B1 TCR alpha
TCR beta: B1 TCR beta with H96N
B7: β96T-P: B8.2.4 TCR point mutant, Vβ-CDR3 96T to P (protein)
TCR alpha: B1 TCR alpha
TCR beta: B1 TCR beta with H96P
B8: β96T-R: B8.2.4 TCR point mutant, Vβ-CDR3 96T to R (protein)
TCR alpha: B1 TCR alpha
TCR beta: B1 TCR beta with H96R
B9: β96T-Q: B8.2.4 TCR point mutant, Vβ-CDR3 96T to Q (protein)
TCR alpha: B1 TCR alpha
TCR beta: B1 TCR beta with H96Q
B10: β96T-S: B8.2.4 TCR point mutant, Vβ-CDR3 96T to S; CDR3β ASSQSVPPQH (protein)
TCR alpha: B1 TCR alpha
TCR beta: B1 TCR beta with H96S
B11: β96T-V: B8.2.4 TCR point mutant, Vβ-CDR3 96T to V; CDR3β ASSQVVPPQH (protein)
TCR alpha: B1 TCR alpha
TCR beta: B1 TCR beta with H96V
B12: β96T-W: B8.2.4 TCR point mutant, Vβ-CDR3 96T to W; CDR3β ASSQWVPPQH (protein)
TCR alpha: B1 TCR alpha
TCR beta: B1 TCR beta with H96W
B13: β96T-Y: B8.2.4 TCR point mutant, Vβ-CDR3 96T to Y (protein)
TCR alpha: B1 TCR alpha
TCR beta: B1 TCR beta with H96Y
B14: β97V-A: B8.2.4 TCR point mutant, Vβ-CDR3 97V to A (protein)
TCR alpha: B1 TCR alpha
TCR beta: B1 TCR beta with H96T, V97A
B15: β97V-C: B8.2.4 TCR point mutant, Vβ-CDR3 97V to C (protein)
TCR alpha: B1 TCR alpha
TCR beta: B1 TCR beta with H96T, V97C
B16: β97V-D: B8.2.4 TCR point mutant, Vβ-CDR3 97V to D (protein)
TCR alpha: B1 TCR alpha
TCR beta: B1 TCR beta with H96T, V97D
B17: β97V-E: B8.2.4 TCR point mutant, Vβ-CDR3 97V to E (protein)
TCR alpha: B1 TCR alpha
TCR beta: B1 TCR beta with H96T, V97E
B18: β97V-F: B8.2.4 TCR point mutant, Vβ-CDR3 97V to F (protein)
TCR alpha: B1 TCR alpha
TCR beta: B1 TCR beta with H96T, V97F
B19: β97V-G: B8.2.4 TCR point mutant, Vβ-CDR3 97V to G (protein)
TCR alpha: B1 TCR alpha
TCR beta: B1 TCR beta with H96T, V97G
B20: β97V-H: B8.2.4 TCR point mutant, Vβ-CDR3 97V to H (protein)
TCR alpha: B1 TCR alpha
TCR beta: B1 TCR beta with H96T, V97H
B21: β97V-I: B8.2.4 TCR point mutant, Vβ-CDR3 97V to I; CDR3β ASSQTIPPQH (protein)
TCR alpha: B1 TCR alpha
TCR beta: B1 TCR beta with H96T, V97I
B22: β97V-K: B8.2.4 TCR point mutant, Vβ-CDR3 97V to K (protein)
TCR alpha: B1 TCR alpha
TCR beta: B1 TCR beta with H96T, V97K
B23: β97V-L: B8.2.4 TCR point mutant, Vβ-CDR3 97V to L (protein)
TCR alpha: B1 TCR alpha
TCR beta: B1 TCR beta with H96T, V97L
B24: β97V-M: B8.2.4 TCR point mutant, Vβ-CDR3 97V to M (protein)
TCR alpha: B1 TCR alpha
TCR beta: B1 TCR beta with H96T, V97M
B25: β97V-N: B8.2.4 TCR point mutant, Vβ-CDR3 97V to N (protein)
TCR alpha: B1 TCR alpha
TCR beta: B1 TCR beta with H96T, V97N
B26: β97V-P: B8.2.4 TCR point mutant, Vβ-CDR3 97V to P (protein)
TCR alpha: B1 TCR alpha
TCR beta: B1 TCR beta with H96T, V97P
B27: β97V-R: B8.2.4 TCR point mutant, Vβ-CDR3 97V to R (protein)
TCR alpha: B1 TCR alpha
TCR beta: B1 TCR beta with H96T, V97R
B28: β97V-Q: B8.2.4 TCR point mutant, Vβ-CDR3 97V to Q (protein)
TCR alpha: B1 TCR alpha
TCR beta: B1 TCR beta with H96T, V97Q
B29: β97V-S: B8.2.4 TCR point mutant, Vβ-CDR3 97V to S; CDR3β ASSQTSPPQH (protein)
TCR alpha: B1 TCR alpha
TCR beta: B1 TCR beta with H96T, V97S
B30: β97V-T: B8.2.4 TCR point mutant, Vβ-CDR3 97V to T; CDR3β ASSQTTPPQH (protein)
TCR alpha: B1 TCR alpha
TCR beta: B1 TCR beta with H96T, V97T
B31: β97V-W: B8.2.4 TCR point mutant, Vβ-CDR3 97V to W (protein)
TCR alpha: B1 TCR alpha
TCR beta: B1 TCR beta with H96T, V97W
B32: β97V-Y: B8.2.4 TCR point mutant, Vβ-CDR3 97V to Y (protein)
TCR alpha: B1 TCR alpha
TCR beta: B1 TCR beta with H96T, V97Y

System: murine TCRβ constant region
Assay: mTCRβ expression detection on Jurkat-NFAT-Luc cells
Format: cell-based
Details: TCR mutant transduced Jurkat-NFAT-Luc cells

In order of rising mTCRβ %:
1. B24  28%
2. B32  36.9%
3. B7  46.6%
4. B25  52.4%
5. B15  52.6%
6. B26  53.4%
7. B20  53.6%
8. B11  54.5%
9. B27  55.2%
10. B10  61.9%
11. B23  63.8%
12. B2  64.6%
13. B30  64.7%
14. B22  65.5%
15. B16  65.6%
16. B12  67.4%
17. B5  67.9%
18. B8  69.2%
19. B13  69.9%
20. B21  69.9%
21. B14  71.3%
22. B3  72%
23. B29  72.2%
24. B4  73.1%
25. B6  74.1%
26. B19  74.3%
27. B28  74.5%
28. B31  74.5%
29. B1  76.2%
30. B18  77.2%
31. B17  78.4%
32. B9  81.5%
